Biological target: T1, CFluc(398-550)-Hif-1α
T1 construct: also called CFluc-HIF-1α; CFluc-Hif1α
T1 chain: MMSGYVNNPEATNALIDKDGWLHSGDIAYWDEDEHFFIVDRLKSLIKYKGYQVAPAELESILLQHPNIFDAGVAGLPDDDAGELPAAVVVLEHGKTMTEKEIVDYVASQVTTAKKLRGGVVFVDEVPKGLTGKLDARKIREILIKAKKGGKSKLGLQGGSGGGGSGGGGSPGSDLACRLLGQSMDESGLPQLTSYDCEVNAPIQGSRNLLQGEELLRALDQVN
Assay: cell-free split-luciferase reassembly, rabbit reticulocyte lysate

B1: p300-NFluc(2-416) (other)
chain: MGSGAHTADPEKRKLIQQQLVLLLHAHKCQRREQANGEVRQCNLPHCRTMKNVLNHMTHCQSGKSCQVAHCASSRQIISHWKNCTRHDCPVCLPLKNAGDKTGGGGGSGGGGSGGGGTEDAKNIKKGPAPFYPLEDGTAGEQLHKAMKRYALVPGTIAFTDAHIEVNITYAEYFEMSVRLAEAMKRYGLNTNHRIVVCSENSLQFFMPVLGALFIGVAVAPANDIYNERELLNSMNISQPTVVFVSKKGLQKILNVQKKLPIIQKIIIMDSKTDYQGFQSMYTFVTSHLPPGFNEYDFVPESFDRDKTIALIMNSSGSTGLPKGVALPHRTACVRFSHARDPIFGNQIIPDTAILSVVPFHHGFGMFTTLGYLICGFRVVLMYRFEEELFLRSLQDYKIQSALLVPTLFSFFAKSTLIDKYDLSNLHEIASGGAPLSKEVGEAVAKRFHLPGIRQGYGLTETTSAILITPEGDDKPGAVGKVVPFFEAKVVDLDTGKTLGVNQRGELCVRGPMIMSGYVNNPEATNALIDKDG
- binding result: binds
